This note sets out measurements from PubChem BioAssay AID445 (National Center for Advancing Translational Sciences (NCATS), 2006).

The list shows a part of the results. The main result of the screen is listed elsewhere. These columns were measured beside it and carry no call. Most of these compounds were active or inconclusive in the main read-out, so they are no random draw. The note in brackets gives the kind of curve behind each potency; many fits are weak.

The assay is described as follows: IkB Signaling. The settings on record: ABC-DLBCL IkBa-CBG/CBR dual luciferase ratio (green luciferase fused to IkBa over red control in OCI-Ly3 lymphoma cells), 4 h. An outline of the steps: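 In this assay, an IκBα–CBG68 fusion accumulates when IKK-driven degradation is blocked; native CBR normalizes for cell number. OCI-Ly3 cells were treated 4 h with compound and doxycycline, then green and red light read after Chroma-Glo addition.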

Where [1] appears, read: measured here: control luc red channel unless noted.

By AC50 is commonly meant the concentration at which the activity in the assay is half-maximal.

With `Cc1cccc(Nc2nc(Nc3cccc(C)c3)nc(N3CCOCC3)n2)c1`, the half-maximal activity concentration (AC50) under setting [1] is 12.6 µM [falling, partial curve]. Still for that read-out and setting: in the case of `COc1cc(OC)c(NC(=O)CSC2=Nc3ccccc3N=C(c3ccc(F)cc3)C2)cc1Cl` it was 1 µM [falling, full curve, poor fit].

`CCOc1ccc(CNC(=O)c2ccc3c(c2)sc2nc(-c4ccc(OC)cc4)cn23)cc1`: the concentration at half-maximal activity (AC50) under setting [1] is 25.1 µM [falling, single point]. On the same count and under the same terms, under `Cc1sc(C2C(C#N)=C(N)N(c3cccc(Cl)c3)C3=C2C(=O)CCC3)cc1CN1CCOCC1` (stereo not given) stands 25.1 µM [falling, single point]; under `C=CCn1c(NC(=O)c2ccccc2Cl)c(C#N)c2nc3ccccc3nc21`, 12.6 µM [falling, partial curve]; under `O=C(Nc1ccc2sccc2c1)c1ccc(Cl)s1`, 7.94 µM [falling, partial curve]. As to `O=C(CCC1N=C2c3ccccc3N=C(SCc3ccccc3Cl)N2C1=O)NCc1cccs1` (stereo not given), the AC50 under setting [1] was 39.8 µM [falling, single point]. Consider `CC(C)Cc1ccc(S(=O)(=O)Nc2ccc3[nH]c(=O)[nH]c3c2)cc1`, for which the AC50 under setting [1] is 25.1 µM [falling, single point]. Still for that read-out and setting: under `Cc1cccc(-c2nnc(SCc3nc4ccccc4[nH]3)n2Cc2ccco2)c1` stands 12.6 µM [falling, partial curve]; under `CCOc1ccc(OCC)c(NC(=O)c2cnc3c(-c4ccccc4)c(C)nn3c2C)c1`, 12.6 µM [falling, partial curve].

Turning to `Cc1cc(NC(=O)CSc2nc(-c3cccs3)cc(C(F)(F)F)n2)no1`, under setting [1], the AC50 was 0.501 µM [rising, full curve]. The same measure, in the same setting: in the case of `O=c1c2oc3ccccc3c2n(Cc2cccc(Cl)c2)c(=O)n1Cc1ccc2c(c1)OCO2` it was 2 µM [falling, partial curve]; in that of `COc1ccccc1OCC(=O)NCC1(N2CCOCC2)CCCCC1`, 25.1 µM [falling, single point]; in that of `O=C(NCc1cccc(Cl)c1)c1ccc(CS(=O)Cc2ccccc2Cl)o1` (stereo not given), 25.1 µM [falling, single point]. Turning to `Cc1cc(C2=CC(C)(c3cc(C)oc3C)Nc3nc(C(F)(F)F)nn32)c(C)o1` (stereo not given), the AC50 is 31.6 µM [rising, partial curve] (measured here: IkB-luc green channel) and 25.1 µM [falling, partial curve] (measured here: control luc red channel). Take `CC1CCN(c2ccc(-c3cccc(NS(=O)(=O)c4ccc(Cl)s4)c3)nn2)CC1`: under setting [1], the half-maximal activity concentration (AC50) is 10 µM [falling, partial curve].

For `Cn1c(CN2CCCC2)nc2cc(NC(=O)Nc3ccccc3)ccc21`, the AC50 under setting [1] was 15.8 µM [falling, partial curve].

With `OC1(c2cccc(C(F)(F)F)c2)CCN(c2ncnc3c2[nH]c2ccc(F)cc23)CC1`, the concentration at half-maximal activity (AC50) under setting [1] is 7.94 µM [falling, full curve]. The same measure, in the same setting: in the case of `c1ccc(-c2nc(-n3ccnc3)nc(-n3ccnc3)n2)cc1` it was 20 µM [falling, partial curve]. Same read-out and setting: under `COc1ccc(C2C(C#N)=C(N)Oc3n[nH]c(C)c32)cc1CN1CCN(c2ccc(F)cc2)CC1` (stereo not given) stands 6.31 µM [falling, partial curve].

Consider `CN(Cc1cccs1)c1ncnc2sccc12`, for which the AC50 under setting [1] was 25.1 µM [falling, single point]. The same measure, in the same setting: under `COc1cccc(CCNC(=O)c2cnc3sc(N4CCCC4)nn3c2=O)c1` stands 39.8 µM [falling, single point]; under `COc1ccc(Cl)cc1NC(=O)N1CCC2(CC1)Oc1ccccc1C(=O)N2Cc1ccc(F)cc1`, 25.1 µM [falling, single point]; under `CCOC(=O)C1=C(CN(CC)Cc2ccccc2)NC(=O)NC1c1ccc(Cl)cc1` (stereo not given), 20 µM [falling, partial curve]. On the same count and under the same terms, in the case of `CC1CCc2c(sc3nnn(CC(=O)Nc4ccccc4Cl)c(=O)c23)C1` (stereo not given) it was 20 µM [falling, partial curve]; in that of `CCCCNC(=O)c1ccc(-c2nc(CN3CCc4ccccc43)c(C)o2)cc1`, 3.16 µM [rising, partial curve]; in that of `O=C(NCc1cccs1)C1CC(c2ccccc2O)=NO1` (stereo not given), 7.94 µM [falling, partial curve]. Same read-out and setting: in the case of `Cc1ccc(Nc2c3c(nc4ccccc24)CCC3)cc1F` it was 15.8 µM [falling, partial curve]. Turning to `COc1cc(C(=O)Nc2nc3ccc(S(=O)(=O)N4CCOCC4)cc3s2)cc(OC)c1OC`, the AC50 under setting [1] was 12.6 µM [falling, partial curve]. On the same count and under the same terms, in the case of `NC(=O)c1ccccc1NC(=O)CCc1ccccc1` it was 2.51 µM [falling, full curve]; in that of `O=C(Nc1nccs1)C1CCN(S(=O)(=O)c2ccc3c(c2)OCCCO3)CC1`, 25.1 µM [falling, partial curve]; in that of `Cc1ccc(NC(=O)CCNS(=O)(=O)c2cccs2)cc1F`, 3.16 µM [rising, single point]. On the same count and under the same terms, in the case of `COc1ccccc1N(CC(=O)NCCSc1ccccc1)S(=O)(=O)c1ccc(C)cc1` it was 15.8 µM [falling, partial curve]. For `O=C1NCCCC2c3cc(O)c4ccccc4c3OC12N1CCCCC1` (stereo not given), under setting [1], the AC50 is 15.8 µM [falling, partial curve]. On the same count and under the same terms, in the case of `CCOc1cc(C(=O)N2CC(=O)Nc3ccc(F)cc3C2c2ccccc2)cc(OCC)c1OCC` (stereo not given) it was 7.94 µM [falling, full curve]; in that of `CC(C)OCCCNC(=O)Cn1c(-c2cccs2)cc2cc(F)ccc21`, 25.1 µM [falling, partial curve, poor fit]; in that of `COc1ccc(NC(=O)Cn2nc(C)c3c(C)n(-c4ccccc4)nc3c2=O)cc1OC`, 31.6 µM [falling, single point]. Take `CCOc1cc(-c2cc(C(=O)O)c3c(-c4ccccc4)[nH]nc3n2)ccc1O`: the AC50 under setting [1] is 1.26 µM [falling, full curve].

As to `COc1ccc(S(=O)(=O)NCC(c2ccco2)S(=O)(=O)c2cccs2)cc1OC` (stereo not given), the half-maximal activity concentration (AC50) under setting [1] is 31.6 µM [falling, single point].

With `CCOc1ccc(-c2c(C)nn3c(C)c(C(=O)NC(C)c4ccccc4)cnc23)cc1OCC` (stereo not given), the AC50 under setting [1] was 39.8 µM [falling, single point]. Turning to `CCCCC(=O)Nc1cc(-c2cn3cccnc3n2)ccc1C`, the AC50 under setting [1] was 0.794 µM [rising, single point]. The same measure, in the same setting: in the case of `CCn1c(SCc2ccc(OC)cc2)nnc1-c1ccncc1` it was 20 µM [falling, partial curve]; in that of `O=C(CCSCc1ccccc1Cl)NCCc1ccccc1`, 39.8 µM [falling, single point]; in that of `O=C(NCc1ccccc1)c1n[nH]nc1-c1ccccc1O`, 3.98 µM [falling, full curve]. Still for that read-out and setting: under `Cc1ccc(OCCSc2nc3ccccc3n2CC(=O)N2CCOCC2)cc1C` stands 1.26 µM [rising, full curve]. Still for that read-out and setting: under `CCOC(=O)c1cc2c(=O)n3ccccc3nc2n(CC2CCCO2)c1=NC(=O)c1ccc(OCC)cc1` (stereo not given) stands 7.94 µM [falling, partial curve]; under `C=C1CC[C@H](O)C/C1=C/C=C1\CCC[C@]2(C)[C@@H]([C@H](C)CCCC(C)C)CC[C@@H]12`, 31.6 µM [falling, partial curve]. For the compound `CN(Cc1ccccc1)C(=O)CSc1nc2ccccc2c(=O)n1Cc1ccco1`, under setting [1], the half-maximal activity concentration (AC50) is 15.8 µM [falling, partial curve]. In the case of `CN(C)c1ccc(NC(=S)c2ccccn2)cc1`, the AC50 under setting [1] is 3.98 µM [falling, full curve]. The same measure, in the same setting: under `COc1ccc(-c2noc(CNC(=O)c3ccc(OC)cc3OC)n2)cc1` stands 1.58 µM [falling, partial curve]. Turning to `CCC1=Nc2cc(C(=O)N3CCC(C)CC3)ccc2Sc2ccc(C)cc21`, the half-maximal activity concentration (AC50) under setting [1] was 31.6 µM [falling, partial curve].

As to `CCOC(=O)c1c(NC(=O)COc2ccc(OC)cc2)sc(C(=O)N(CC)CC)c1C`, the half-maximal activity concentration (AC50) under setting [1] was 39.8 µM [falling, single point]. Regarding `Cn1c(=O)c(C(=S)NC(=O)C2CC2)c(N)n(Cc2ccccc2)c1=O`, under setting [1], the half-maximal activity concentration (AC50) is 39.8 µM [rising, single point] [measured here: IkB-luc green channel]. The same measure, in the same setting: under `N#C/C(=C\c1ccccc1)c1nc(-c2cc3c(ccc4ccccc43)oc2=O)cs1` stands 0.794 µM [rising, full curve, poor fit]. For the compound `O=C(COC(=O)c1cc(-c2cccs2)nc2ccccc12)NCc1ccco1`, the AC50 under setting [1] was 25.1 µM [falling, partial curve]. As to `CCSc1nnc(-c2cccc(S(=O)(=O)N(CC)CC)c2)n1Cc1ccccc1`, the AC50 under setting [1] was 25.1 µM [falling, partial curve]. On the same count and under the same terms, in the case of `COc1ccccc1CSc1nc2n(n1)C(c1ccccc1)C(C(=O)Nc1ccc(C)cc1)=C(C)N2` (stereo not given) it was 25.1 µM [falling, single point]. The same measure, in the same setting: in the case of `CCC(Sc1nc2n[nH]c(C)c2c(=N)n1-c1ccc(Br)cc1)C(=O)N(CC)CC` (stereo not given) it was 39.8 µM [falling, single point]. The same measure, in the same setting: under `COc1ccccc1C(=O)n1nc(C)cc1C` stands 39.8 µM [rising, single point]. Turning to `CCOC(=O)c1c(S(=O)(=O)N2CCN(c3cc(Cl)ccc3C)CC2)c(C)n(C)c1C`, under setting [1], the AC50 was 39.8 µM [falling, single point]. Same read-out and setting: in the case of `CCC(=O)n1nc(-c2ccco2)nc1SCc1ccccc1` it was 0.316 µM [rising, full curve, poor fit]; in that of `O=C(c1cccc(C(=O)N2CCN(Cc3ccccc3)CC2)c1)N1CCN(Cc2ccccc2)CC1`, 15.8 µM [falling, partial curve]; in that of `O=C(Nc1nccs1)c1cc(S(=O)(=O)N2CCCCC2)ccc1Cl`, 10 µM [falling, partial curve]. The same measure, in the same setting: in the case of `Cc1cccc(CCNC(=O)CCc2c(C)nc3c(-c4ccc(F)cc4)c(C)nn3c2C)c1` it was 7.94 µM [falling, full curve, poor fit].
